Experimental findings from doi:10.1101/2021.02.04.429732 are described below.

By UniProt entry, the sequences of proteins in these tests, tags left out.
UniProt Q9H8M2: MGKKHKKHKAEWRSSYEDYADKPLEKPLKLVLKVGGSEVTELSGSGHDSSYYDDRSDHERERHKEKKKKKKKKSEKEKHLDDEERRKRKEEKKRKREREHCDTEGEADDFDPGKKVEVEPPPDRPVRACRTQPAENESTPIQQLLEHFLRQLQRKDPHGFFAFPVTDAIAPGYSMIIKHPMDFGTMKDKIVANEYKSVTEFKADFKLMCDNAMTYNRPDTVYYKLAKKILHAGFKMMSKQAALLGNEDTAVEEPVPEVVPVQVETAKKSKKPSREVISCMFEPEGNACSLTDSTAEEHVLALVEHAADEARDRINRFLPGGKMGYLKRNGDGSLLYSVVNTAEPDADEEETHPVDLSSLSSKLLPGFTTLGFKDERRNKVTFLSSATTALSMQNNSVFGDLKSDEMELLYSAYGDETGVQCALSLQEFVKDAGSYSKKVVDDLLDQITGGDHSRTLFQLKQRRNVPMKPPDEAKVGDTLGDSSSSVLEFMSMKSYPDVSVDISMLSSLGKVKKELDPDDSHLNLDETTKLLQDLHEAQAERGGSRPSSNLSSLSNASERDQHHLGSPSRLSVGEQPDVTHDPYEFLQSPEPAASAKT
UniProt Q6AI39: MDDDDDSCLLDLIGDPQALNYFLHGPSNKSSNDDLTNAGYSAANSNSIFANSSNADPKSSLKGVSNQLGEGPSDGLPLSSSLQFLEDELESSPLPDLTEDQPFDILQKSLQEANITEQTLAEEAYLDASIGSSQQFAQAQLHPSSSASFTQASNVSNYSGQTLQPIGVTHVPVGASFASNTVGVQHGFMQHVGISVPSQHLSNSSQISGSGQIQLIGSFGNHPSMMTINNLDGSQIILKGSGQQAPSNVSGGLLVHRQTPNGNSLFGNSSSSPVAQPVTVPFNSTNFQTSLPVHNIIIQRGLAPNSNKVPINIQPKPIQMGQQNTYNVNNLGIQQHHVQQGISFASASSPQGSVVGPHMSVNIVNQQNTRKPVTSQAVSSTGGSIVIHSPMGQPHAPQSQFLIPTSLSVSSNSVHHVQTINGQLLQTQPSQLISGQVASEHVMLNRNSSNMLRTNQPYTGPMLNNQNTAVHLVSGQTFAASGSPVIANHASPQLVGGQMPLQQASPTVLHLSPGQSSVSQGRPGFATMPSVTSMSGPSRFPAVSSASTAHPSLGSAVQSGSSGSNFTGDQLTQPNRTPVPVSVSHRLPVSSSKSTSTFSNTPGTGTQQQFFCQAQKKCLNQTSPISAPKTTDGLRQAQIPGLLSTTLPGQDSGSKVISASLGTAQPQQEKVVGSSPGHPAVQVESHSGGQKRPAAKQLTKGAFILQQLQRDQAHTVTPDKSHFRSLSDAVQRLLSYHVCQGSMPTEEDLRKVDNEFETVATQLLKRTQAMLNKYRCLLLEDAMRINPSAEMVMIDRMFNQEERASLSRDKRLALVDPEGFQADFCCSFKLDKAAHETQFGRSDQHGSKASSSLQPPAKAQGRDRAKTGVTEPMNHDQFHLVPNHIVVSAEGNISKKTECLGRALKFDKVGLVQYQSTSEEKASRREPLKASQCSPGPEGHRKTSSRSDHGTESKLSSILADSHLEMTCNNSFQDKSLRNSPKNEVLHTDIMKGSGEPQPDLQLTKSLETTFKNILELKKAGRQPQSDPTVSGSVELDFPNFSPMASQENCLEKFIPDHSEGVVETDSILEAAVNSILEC
UniProt Q9NZM4: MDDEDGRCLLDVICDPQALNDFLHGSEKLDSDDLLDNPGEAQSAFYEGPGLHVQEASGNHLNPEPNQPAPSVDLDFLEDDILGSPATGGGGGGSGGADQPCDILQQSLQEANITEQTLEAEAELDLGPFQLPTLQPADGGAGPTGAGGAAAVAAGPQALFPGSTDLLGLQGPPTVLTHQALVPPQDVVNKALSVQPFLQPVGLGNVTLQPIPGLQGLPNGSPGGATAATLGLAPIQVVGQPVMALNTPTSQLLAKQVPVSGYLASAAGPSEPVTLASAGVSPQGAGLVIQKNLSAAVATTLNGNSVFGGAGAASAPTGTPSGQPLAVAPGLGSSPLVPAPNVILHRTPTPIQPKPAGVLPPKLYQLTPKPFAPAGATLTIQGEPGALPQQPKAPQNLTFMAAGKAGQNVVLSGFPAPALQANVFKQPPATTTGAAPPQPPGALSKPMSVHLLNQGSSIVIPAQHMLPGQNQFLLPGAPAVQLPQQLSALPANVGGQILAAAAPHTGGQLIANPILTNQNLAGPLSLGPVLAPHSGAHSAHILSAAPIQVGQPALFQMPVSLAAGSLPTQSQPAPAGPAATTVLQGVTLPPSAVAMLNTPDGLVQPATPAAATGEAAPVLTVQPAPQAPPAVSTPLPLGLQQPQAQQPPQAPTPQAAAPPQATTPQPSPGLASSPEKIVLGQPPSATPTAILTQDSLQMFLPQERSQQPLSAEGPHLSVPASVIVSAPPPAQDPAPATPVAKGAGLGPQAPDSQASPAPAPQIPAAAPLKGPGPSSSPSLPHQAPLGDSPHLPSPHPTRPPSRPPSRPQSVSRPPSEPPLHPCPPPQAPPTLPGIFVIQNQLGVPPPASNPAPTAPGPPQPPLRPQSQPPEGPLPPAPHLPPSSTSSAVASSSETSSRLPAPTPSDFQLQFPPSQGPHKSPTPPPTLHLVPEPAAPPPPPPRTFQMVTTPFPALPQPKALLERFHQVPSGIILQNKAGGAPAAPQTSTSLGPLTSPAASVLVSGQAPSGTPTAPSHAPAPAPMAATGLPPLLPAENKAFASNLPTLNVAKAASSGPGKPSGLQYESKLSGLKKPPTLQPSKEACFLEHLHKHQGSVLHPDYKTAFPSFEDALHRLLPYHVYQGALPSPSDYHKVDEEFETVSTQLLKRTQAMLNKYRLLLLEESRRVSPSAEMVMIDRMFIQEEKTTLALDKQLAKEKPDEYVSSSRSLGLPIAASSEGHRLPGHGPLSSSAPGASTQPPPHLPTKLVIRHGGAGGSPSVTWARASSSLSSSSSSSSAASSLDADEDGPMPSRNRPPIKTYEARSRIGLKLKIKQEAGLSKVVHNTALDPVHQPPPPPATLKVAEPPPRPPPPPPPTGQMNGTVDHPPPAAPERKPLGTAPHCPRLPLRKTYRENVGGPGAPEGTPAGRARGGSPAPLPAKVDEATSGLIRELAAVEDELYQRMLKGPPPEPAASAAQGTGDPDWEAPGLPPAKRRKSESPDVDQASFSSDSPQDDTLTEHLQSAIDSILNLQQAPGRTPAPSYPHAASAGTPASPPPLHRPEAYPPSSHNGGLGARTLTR

This assay deals with TurboID-tagged BRD9 (Bromodomain-containing protein 9) (human) (UniProt Q9H8M2). The assay is described as follows: proximity labelling.

These are yes or no findings as the source states them, for the method shown. In cells and extracts the contact can be indirect. These calls come from enrichment with a bait or labelling near it, and not all partners need be listed.

GLTSCR1L (from UniProt Q6AI39 1-1079): the binding result is “binds”. In the case of GLTSCR1 (from UniProt Q9NZM4 1-1560), the binding result is “binds”.
